From paper PMC7819943, “Rice protein-binding microarrays: a tool to detect cis-acting elements near promoter regions in rice”
Some of the results follow.

Chains of the proteins cited; added tags and fusions are not shown.
UniProt Q0JBA9, entry or part of it: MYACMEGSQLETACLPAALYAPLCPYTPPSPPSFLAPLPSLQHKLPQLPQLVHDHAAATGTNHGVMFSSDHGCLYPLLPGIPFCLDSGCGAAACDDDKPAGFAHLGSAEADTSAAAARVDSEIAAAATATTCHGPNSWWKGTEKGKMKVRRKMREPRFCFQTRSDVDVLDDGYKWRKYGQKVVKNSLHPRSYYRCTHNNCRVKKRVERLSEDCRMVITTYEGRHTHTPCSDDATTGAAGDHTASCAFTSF

The sequences below were run against OsWRKY34 (Oryza sativa, UniProt Q0JBA9 1-250) (assay: protein-binding microarray (RPBM); PBS, 2% BSA, 51.3 ng/ul salmon testes DNA, 50 uM zinc acetate, 200 nM TF, 25 C, 1 h; high values mean tight binding). Settings: protein: recombinant; tags: N-terminal polyhistidine and DsRed monomer fusion (pET32a); label: CyDye5-dUTP incorporated in the synthesized complementary strand; 3' TTTTT single-stranded linker to array surface; dsDNA, one strand shown.
Procedure, shortened: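 Polyhistidine-tagged DsRed fusions of transcription factors, joined at the N-terminus, were expressed in E. coli BL21-CodonPlus and isolated on Ni–NTA. They were incubated at 200 nM for 1 h at 25 °C on a custom Agilent array, double-stranded and BSA-blocked, in PBS with 2% BSA, salmon testes DNA and 50 µM zinc acetate. The binding signal is per-feature fluorescence intensity (arbitrary units) read on an Axon 4000B scanner after washing.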

Row | Sequence | binding signal
1 | TCCCGATCGCTTCAATCATTGATCACCAAAGACACGCTAGCGGAGTCACCTAGTGCAG | 8120 fluorescence intensity (a.u.)
2 | TGTAATCTTACCTCTTTGCTGTTTTCATCTATTAAATTTCCGGAGTCACCTAGTGCAG | 10400 fluorescence intensity (a.u.)
3 | AATCGCATGTAAGGTTATTATGGTTTCAGTCATGTGTTCGCGGAGTCACCTAGTGCAG | 10400 fluorescence intensity (a.u.)
4 | TAACTTAACGTGATTTTCCTGTATGGACCTTAATTATGTTCGGAGTCACCTAGTGCAG | 8580 fluorescence intensity (a.u.)
5 | ATAATATTATACTGTACTTTGCTCGCTCATTTTCACACCCCGGAGTCACCTAGTGCAG | 9060 fluorescence intensity (a.u.)
6 | CAATGTACTACTGCTTATACTACCTCCGTCCCAAAATAAGCGGAGTCACCTAGTGCAG | 11300 fluorescence intensity (a.u.)
7 | TCGGTGGGTGGTTGGGGATATTGCAAAAAGTATATAAAAACGGAGTCACCTAGTGCAG | 15800 fluorescence intensity (a.u.)
8 | TTGTGCTTGTAGTAATTCTTTTTTTTTTTAACGACGGTACCGGAGTCACCTAGTGCAG | 8780 fluorescence intensity (a.u.)
9 | TTATCTGATTCCTATGTTTTTCCTGCGGTCCAATCAAACGCGGAGTCACCTAGTGCAG | 8950 fluorescence intensity (a.u.)
10 | AAACTTTGGCTCTTGTACTTCTAGTTTTGGTCTTGTGATACGGAGTCACCTAGTGCAG | 11000 fluorescence intensity (a.u.)
11 | CCACTCGTAGTGGTGCTGTGCTCTTTTGATCTTGCTCGTACGGAGTCACCTAGTGCAG | 8580 fluorescence intensity (a.u.)
12 | ATTCGAGTCTCATCTCCATCCTTCACGCGACGTGCTGCTCCGGAGTCACCTAGTGCAG | 12100 fluorescence intensity (a.u.)
13 | CCACTCACCACGCGCGCTGCCCGCTTGCCTCCTCTGCCCACGGAGTCACCTAGTGCAG | 10200 fluorescence intensity (a.u.)
14 | TCGAGCACGACCACGCCTCACGCCGATCCTCCATCGCGCGCGGAGTCACCTAGTGCAG | 8600 fluorescence intensity (a.u.)
15 | ATCTTTTCCATCCTTTGCATCAGCGTCGTACGACTCTCTCCGGAGTCACCTAGTGCAG | 11900 fluorescence intensity (a.u.)
16 | CTACCTTGACGCCCACTAACATCCCGTATTGAACATCCCACGGAGTCACCTAGTGCAG | 8720 fluorescence intensity (a.u.)
17 | GGCGGGGCCCCACATCGACCGCGCCGTCGGCCCCGCCGCGCGGAGTCACCTAGTGCAG | 8310 fluorescence intensity (a.u.)
18 | TCTGCCTCGTCGATCGCCTATTTGCCTTTTCTACCTAGAACGGAGTCACCTAGTGCAG | 15100 fluorescence intensity (a.u.)
19 | CAGTCACTTGGTCGAATTTTTTTAATTTCCTTCTGTTCTACGGAGTCACCTAGTGCAG | 8920 fluorescence intensity (a.u.)
20 | CCGGTCTCGTTGACCCCGTCTCCACCGCTTGCTCTCGCCGCGGAGTCACCTAGTGCAG | 10600 fluorescence intensity (a.u.)
21 | CATTGCATTGCACTGCTGCTGCTTCACTCCACTGCGCACTCGGAGTCACCTAGTGCAG | 9300 fluorescence intensity (a.u.)
22 | CGCCATTTTCTCATGCCCGCCGCCGCCTCCACCGCGAGGACGGAGTCACCTAGTGCAG | 10400 fluorescence intensity (a.u.)
23 | TCATGGTTTCTGCCTATAATACCGAGCGTACATCCGAGCCCGGAGTCACCTAGTGCAG | 8860 fluorescence intensity (a.u.)
24 | TACGTGCCCCATCACATGCAACGATTCTGCGTCGATCGATCGGAGTCACCTAGTGCAG | 9440 fluorescence intensity (a.u.)
25 | GGTTTGTTTCTACTTTTTACTGTACTTTGCTACCAAGAAACGGAGTCACCTAGTGCAG | 10400 fluorescence intensity (a.u.)
26 | GGTTTCTTGGATTGGGCTGTGGCTGGCGTTGGTCGGAGGACGGAGTCACCTAGTGCAG | 19100 fluorescence intensity (a.u.)
27 | CTTTAGTTGTCAGTAGTGGTAACCTGTCTTTTGTGATCGGCGGAGTCACCTAGTGCAG | 9160 fluorescence intensity (a.u.)

Row | Sequence | binding signal
28 | ACACCATTTTCTTCATTATATAGACTTAAGTACATGCAAACGGAGTCACCTAGTGCAG | 8170 fluorescence intensity (a.u.)
29 | TCTTACACGTTATTTTTTTATTGTTATCATACTAAATTCCCGGAGTCACCTAGTGCAG | 8400 fluorescence intensity (a.u.)
30 | GTTTGTACTCTTATCTTTTCTGTCTGATTGTTCTGATATTCGGAGTCACCTAGTGCAG | 12200 fluorescence intensity (a.u.)
31 | GCTGATTAGTTTCACTGTTGAGCCATCGTGCAACATTGCACGGAGTCACCTAGTGCAG | 9600 fluorescence intensity (a.u.)
32 | GTTGACTTTTTGACAAACGTTTGACTTTTCGTCTTATTCACGGAGTCACCTAGTGCAG | 17400 fluorescence intensity (a.u.)
33 | TTGTTGTGTATGTTTCCAATCGGTTCGTTTGCAACGCATACGGAGTCACCTAGTGCAG | 8440 fluorescence intensity (a.u.)
34 | TGTCTATCTATCTTCTACTCCTATCTATTTATTCTATAACCGGAGTCACCTAGTGCAG | 10800 fluorescence intensity (a.u.)
35 | CTCTCTTATCCGATTCCTGTGTTTTTTCTGTGGTCTAATCCGGAGTCACCTAGTGCAG | 11400 fluorescence intensity (a.u.)
36 | AAGAAATCTTCCCTGTCCTACCTTTTCTTCTCACTGTATGCGGAGTCACCTAGTGCAG | 8860 fluorescence intensity (a.u.)
37 | CGCCGTCGCCGTCGCGCTCATCCACGTCACCATGGACGAACGGAGTCACCTAGTGCAG | 9130 fluorescence intensity (a.u.)
38 | TTGGCGTGATGGGAATTTTTTTCATATTTACATTTTTATTCGGAGTCACCTAGTGCAG | 8870 fluorescence intensity (a.u.)
39 | CATTGTAGTTTATTTTTCAGCCTCTACTTTTAGATCGTTACGGAGTCACCTAGTGCAG | 8740 fluorescence intensity (a.u.)
40 | TGGTCTTGTGGTGCCTTTTTTCCTGCTTTTCAGCTTTCTACGGAGTCACCTAGTGCAG | 16000 fluorescence intensity (a.u.)
41 | ACGACGAGGTCGCTTTTTTCTTGTTGGGCTGGGCTGGGATCGGAGTCACCTAGTGCAG | 21800 fluorescence intensity (a.u.)
42 | AAGCCACAACGCTCACAGCGCGCGCGCCTCCAGTCTTCTCCGGAGTCACCTAGTGCAG | 8190 fluorescence intensity (a.u.)
43 | CGTGGTTGACTATTTATTATTGAAGCCTTGCAACATGGACCGGAGTCACCTAGTGCAG | 13200 fluorescence intensity (a.u.)
44 | CTCATACTATTTTGGTTTGTCGATATGTTCAGCAAGACGTCGGAGTCACCTAGTGCAG | 9070 fluorescence intensity (a.u.)
45 | CCACTCCACATCACGATCGCGGGCGCCGGTATGCTTCTTCCGGAGTCACCTAGTGCAG | 9680 fluorescence intensity (a.u.)
46 | GCACTAGCAGCCACGCTCGCCCGCCGCCGCCCGTCCTGCCCGGAGTCACCTAGTGCAG | 8350 fluorescence intensity (a.u.)
47 | CCGTCGACCGCCTCGTCCTCTGCCTCGGCTGCTTCTGGATCGGAGTCACCTAGTGCAG | 13800 fluorescence intensity (a.u.)
48 | GTATATACCCTAACTTGTCATCCCACTCAGCTGTCCGTCCCGGAGTCACCTAGTGCAG | 8100 fluorescence intensity (a.u.)
49 | CTTCTTAGTACTGCATATATTTTCTTGATTGCTTCAGTGACGGAGTCACCTAGTGCAG | 8300 fluorescence intensity (a.u.)
50 | AAACTTATTTGGCCATGGTGTCATCGGGGTTGGCGTTTAGCGGAGTCACCTAGTGCAG | 10000 fluorescence intensity (a.u.)
51 | GGGTGTCATATCGGATGTTTGACCGGATGTCGGATGGGTTCGGAGTCACCTAGTGCAG | 10400 fluorescence intensity (a.u.)
52 | TGTAGGAGTAGTCTCTCACAGCTCTCGCTTTCTCCTCTCACGGAGTCACCTAGTGCAG | 8030 fluorescence intensity (a.u.)
53 | TACCTGGACTAATGGTGCATTTATCGCCCGCGACTAAACACGGAGTCACCTAGTGCAG | 8240 fluorescence intensity (a.u.)
54 | CCCAGCCGCGTCGCTCACTGTTTTCCTCCACCGCCGCAGTCGGAGTCACCTAGTGCAG | 11000 fluorescence intensity (a.u.)

Some of the entries above, reformatted.
Row	Sequence	binding signal
20	CCGGTCTCGTTGACCCCGTCTCCACCGCTTGCTCTCGCCGCGGAGTCACCTAGTGCAG	10600 fluorescence intensity (a.u.)
34	TGTCTATCTATCTTCTACTCCTATCTATTTATTCTATAACCGGAGTCACCTAGTGCAG	10800 fluorescence intensity (a.u.)
